# In all, about 300,000 compounds went through this assay and about 3,700 (1.2%) were called active. Inconclusive means that the source gave no clear call. Such entries were picked first, then a sample of the others. Calls come from the whole dose curve; tested in HEK293 cells. Potencies beside an inconclusive call are fits to weak or partial responses and may not hold up.
# Test: qHTS for Inhibitors of binding or entry into cells for Lassa Virus; note: nearly all actives have a fitted effect of over 50% in size
# Details: Lassa virus pseudotype entry inhibition, cell reporter; series mostly up to 37.9 µM
# Potency is the fitted concentration of half-maximal effect.
row,SMILES,Potency
1,CCOC(=O)c1cc(C)n(CC2CCC(C(=O)Nc3cc(OC)cc(OC)c3)CC2)c1C (configuration not stated),"inconclusive: 35.5 µM [activator, single point]"
2,CC1CCN(CC(=O)Nc2cccc(C(=O)Nc3cccc(C(F)(F)F)c3)c2)CC1,"inconclusive: 17.8 µM [inhibitor, partial curve, poor fit]"
3,C/C(=N/NC(=O)c1ccc(Br)o1)c1cccc(NC(=O)c2ccc(F)cc2)c1,"inconclusive: 25.1 µM [inhibitor, single point]"
4,Cc1csc(SCC(=O)NC(=O)c2ccccc2)n1,inactive
5,Cc1onc(-c2c(Cl)cccc2Cl)c1C(=O)Nc1ccc(Cl)cn1,"inconclusive: 12.6 µM [inhibitor, partial curve, poor fit]"
6,CCCNC(=O)c1cnc2c(-c3ccc(OCC)c(OCC)c3)c(C)nn2c1-c1ccccc1,inactive
7,CC(C)Oc1ccc(C(=O)Nc2nonc2-c2ccc(OC(C)C)cc2)cc1,"inconclusive: 3.98 µM [inhibitor, full curve, poor fit]"
8,COC(=O)CCN(C(=O)C1CCN(S(=O)(=O)c2c(C)noc2/C=C/c2ccccc2F)CC1)c1ccccc1,inactive
9,N#CCCN(C(=O)Cn1nc(C(=O)O)c2ccccc2c1=O)c1ccccc1,"inconclusive: 0.316 µM [inhibitor, full curve, poor fit]"
10,CCCCN(C)CCCNC(=O)C1CC(=O)N(Cc2ccc(OC)cc2)C1 (configuration not stated),inactive
11,CCc1cccc(NC(=O)Cn2nc3c4cc(F)ccc4n(Cc4cccc(C)c4)cc-3c2=O)c1,inactive
12,COc1ccc(N2CCN(c3oc(Cc4ccccc4)nc3C#N)CC2)cc1,active: 5.17 µM
13,O=C(Cc1ccccc1)Nc1cc([N+](=O)[O-])ccc1N1CCOCC1,"inconclusive: 0.891 µM [inhibitor, single point]"
14,O=C(COc1ccccc1)N/N=C/c1ccc(O[C@@H]2O[C@H](CO)[C@@H](O)[C@H](O)[C@H]2O)cc1,"inconclusive: 0.112 µM [inhibitor, full curve, poor fit]"
15,Cc1ccc(C(=O)N2CC(=O)Nc3ccc(F)cc3C2c2ccccc2)cc1[N+](=O)[O-] (configuration not stated),"inconclusive: 20.6 µM [inhibitor, partial curve, poor fit]"
16,Cc1ccc(OCC(=O)N2CCc3ccccc32)cc1,"inconclusive: 15.8 µM [inhibitor, single point]"
17,O=C(/C=C/c1ccc(Cl)cc1)NCc1ccco1,active: 6.51 µM
18,Cc1ccc(NC(=O)CN2C(=O)S/C(=C\c3ccc(-c4cccc(C(=O)O)c4C)o3)C2=O)cc1C,"inconclusive: 22.4 µM [inhibitor, partial curve, poor fit]"
19,Cc1ccc(CSc2oc(-c3cccs3)nc2S(=O)(=O)c2ccc(C)cc2)cc1,"inconclusive: 5.01 µM [inhibitor, full curve, poor fit]"
20,COC(=O)CC1Oc2ccc(C)cc2-n2cc(-c3ccc(C)cc3)nc21 (configuration not stated),"inconclusive: 28.2 µM [inhibitor, single point]"
21,COc1ccc(-c2nc(SCC(=O)Nc3ccc4c(c3)OCCO4)c(-c3ccccc3)[nH]2)cc1,"inconclusive: 35.5 µM [inhibitor, single point]"

# Laid out differently: two of the compounds above.
row	SMILES	Potency
7	CC(C)Oc1ccc(C(=O)Nc2nonc2-c2ccc(OC(C)C)cc2)cc1	inconclusive: 3.98 µM [inhibitor, full curve, poor fit]
17	O=C(/C=C/c1ccc(Cl)cc1)NCc1ccco1	active: 6.51 µM

# (more compounds)

row,SMILES,Potency
1,CCc1ccc(NC(=O)Cn2c(=O)n(-c3cc(C)cc(C)c3)c(=O)c3oc4ccccc4c32)cc1,inactive
2,Cc1ccc2occ(C(=O)c3ccco3)c(=O)c2c1,"inconclusive: 0.0082 µM [activator, full curve, poor fit]"
3,COc1ccc(NC(=O)CSc2ccc3c4c(cccc24)C(=O)c2ccccc2-3)cc1,"inconclusive: 29.1 µM [inhibitor, single point]"
4,COc1ccc(C(=O)C2CCN(C(=O)c3ccc(F)cc3)CC2)cc1,inactive
5,CCC(C)n1c(/C=C/c2ccccc2)nc2ccccc21 (configuration not stated),inactive
6,CC(=O)Nc1cccc(OCC(O)Cn2cnc3ccccc32)c1 (configuration not stated),inactive
7,COc1cccc(C(=O)/C=C/Nc2ccc(NC(C)=O)cc2)c1,"inconclusive: 35.5 µM [inhibitor, single point]"
8,CCCCN(CCCC)C(=O)c1cc(Cl)ccc1[N+](=O)[O-],"inconclusive: 0.562 µM [activator, full curve, poor fit]"
9,COc1ccc(C(=O)/C=C/c2ccc(OC(=O)c3cc(OC)c(OC)c(OC)c3)cc2)cc1,"inconclusive: 28.2 µM [inhibitor, single point]"
10,CCn1c(SCC(=O)N2CCc3ccccc32)nnc1-c1c[nH]c2ccccc12,"inconclusive: 14.1 µM [inhibitor, partial curve]"
11,CC(=O)c1ccc(NC(=O)Cn2nc(C(F)(F)F)c3c2CCCC3)cc1,inactive
12,Nc1nonc1-c1noc(CCCN2C(=O)c3ccccc3C2=O)n1,inactive
13,C=CCc1cc(/C=C/c2nc(O)c([N+](=O)[O-])c(=O)[nH]2)cc(OC)c1O,inactive
14,O=C(Nc1cccc(C(F)(F)F)c1)c1cccc(C(=O)Nc2cccc(C(F)(F)F)c2)c1,"inconclusive: 2.82 µM [inhibitor, single point]"
15,Cc1ccc(C)c(C(=O)O/N=C(\N)c2ccc(Br)cc2)c1,"inconclusive: 16.4 µM [inhibitor, partial curve, poor fit]"
16,COCC1CCCCN1C(=O)c1cccc(OC2CCN(C(=O)C3CC3)CC2)c1 (configuration not stated),inactive
17,CN(C(=O)Nc1cccc(C(F)(F)F)c1)C1CCCCC1,"inconclusive: 39.8 µM [inhibitor, partial curve, poor fit]"
18,CCOC(=O)N1CCN(C(=O)CN(c2cccc(C(F)(F)F)c2)S(=O)(=O)c2ccccc2)CC1,"inconclusive: 6.51 µM [inhibitor, full curve, poor fit]"
19,O=C1CCCc2cc(S(=O)(=O)NCC3CCC(C(=O)NCc4ccc(F)cc4)CC3)ccc2N1 (configuration not stated),inactive
20,C[C@@H]1CC[C@H]2C(=O)N3[C@@H](CC[C@@H](C)[C@@H]3c3ccc(Br)cc3)C(=O)N2[C@H]1c1ccc(Br)cc1,inactive
21,COc1ccc(OC)c(C2C=C(c3ccc(C)c(C)c3)Nc3nnnn32)c1 (configuration not stated),active: 5.01 µM
